Results deposited as PubChem BioAssay AID1508597 (Cure First, 2020).
The whole screen tested about 2,100 reagents; below is a random part of them. 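Calls flag viability under 80% in either arm, not effects specific to rucaparib; the reference for percent is not stated.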 Not given: the 100% reference.

- Purpose: 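Survival screen with siRNA in ovarian cancer cells derived from patients, with or without rucaparib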 (primary screen)
- Cell system: human ovarian carcinoma lines grown from tumours: OCI-P5x (papillary serous) and OCI-C5x (clear cell)
- Knock-down reagent: siRNA pool against human genes, 1.25 pmol siRNA per well
- Time to read-out: 72 h or 96 h, depending on the cell culture
- Conditions: rucaparib 20 µM (about IC30) or vehicle, present until read-out
- Read-out: 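Luminescent ATP-based viability assay read 72 or 96 h after transfection, depending on culture, given as normalised percent viability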
- Reading the numbers: viability, normalised: higher = more viable cells remaining
- Call rule: 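Active when normalised viability falls below 80 percent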
- Calls: active = viability under 80%; inactive = viability 80% or more

With CDK16, rucaparib or vehicle Rucaparib, cell line OCI-C5x (clear cell), technical replicate 1, the values are viability, normalised (%) = 63.4; active.
CDK16, rucaparib or vehicle Rucaparib, cell line OCI-C5x (clear cell), technical replicate 2 showed viability, normalised (%) = 68.5; active.
CDK16, rucaparib or vehicle Rucaparib, cell line OCI-C5x (clear cell), technical replicate 3 scored viability, normalised (%) = 68.9; active.
For CDK16, rucaparib or vehicle Rucaparib, cell line OCI-P5x (serous), technical replicate 1 the deposit lists viability, normalised (%) = 88.1; inactive.
For CDK16, rucaparib or vehicle Rucaparib, cell line OCI-P5x (serous), technical replicate 2, the values are viability, normalised (%) = 80; inactive.
CDK16, rucaparib or vehicle Rucaparib, cell line OCI-P5x (serous), technical replicate 3 showed viability, normalised (%) = 83.1; inactive.
CDK16, rucaparib or vehicle Vehicle, cell line OCI-C5x (clear cell), technical replicate 1 gave viability, normalised (%) = 54.1; active.
CDK16, rucaparib or vehicle Vehicle, cell line OCI-C5x (clear cell), technical replicate 2 showed viability, normalised (%) = 75.3; active.
CDK16, rucaparib or vehicle Vehicle, cell line OCI-C5x (clear cell), technical replicate 3 showed viability, normalised (%) = 67.9; active.
With CDK16, rucaparib or vehicle Vehicle, cell line OCI-P5x (serous), technical replicate 1, the values are viability, normalised (%) = 78.9; active.
CDK16, rucaparib or vehicle Vehicle, cell line OCI-P5x (serous), technical replicate 2 showed viability, normalised (%) = 67.8; active.
CDK16, rucaparib or vehicle Vehicle, cell line OCI-P5x (serous), technical replicate 3 gave viability, normalised (%) = 77.3; active.
